According to paper PMC10359491:
Negatives hold for the conditions tested. At least one verdict rests on a figure or table, not on a statement of the authors. For some assays here: Tags and fusion partners may be left off the protein sequences shown. For some assays here: Construct, isoform or probe ends are uncertain for at least one entry.

By UniProt entry, the sequences of proteins in these tests, tags left out. Where a name states a change or a piece, a line headed by the entry shows the natural chain unless it says otherwise. Residues count along the entry.
UniProt P02789, 20-705: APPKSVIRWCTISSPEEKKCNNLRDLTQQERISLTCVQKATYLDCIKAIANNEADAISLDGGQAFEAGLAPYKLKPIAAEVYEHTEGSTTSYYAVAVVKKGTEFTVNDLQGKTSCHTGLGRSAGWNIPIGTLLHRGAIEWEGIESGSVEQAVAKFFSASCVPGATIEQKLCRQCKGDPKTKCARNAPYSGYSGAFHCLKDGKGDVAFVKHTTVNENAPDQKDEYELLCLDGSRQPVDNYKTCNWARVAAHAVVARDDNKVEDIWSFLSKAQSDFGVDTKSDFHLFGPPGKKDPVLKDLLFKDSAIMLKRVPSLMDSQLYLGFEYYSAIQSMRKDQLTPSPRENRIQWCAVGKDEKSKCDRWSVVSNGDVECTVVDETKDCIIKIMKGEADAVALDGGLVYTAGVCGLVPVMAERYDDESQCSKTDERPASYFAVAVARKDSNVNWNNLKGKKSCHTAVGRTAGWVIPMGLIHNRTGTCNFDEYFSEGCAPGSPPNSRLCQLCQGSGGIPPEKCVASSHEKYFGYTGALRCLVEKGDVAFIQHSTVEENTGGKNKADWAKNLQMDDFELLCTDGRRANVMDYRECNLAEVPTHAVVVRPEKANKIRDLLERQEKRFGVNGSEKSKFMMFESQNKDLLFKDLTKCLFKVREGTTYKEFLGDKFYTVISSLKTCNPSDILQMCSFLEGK
UniProt P00772, 27-266: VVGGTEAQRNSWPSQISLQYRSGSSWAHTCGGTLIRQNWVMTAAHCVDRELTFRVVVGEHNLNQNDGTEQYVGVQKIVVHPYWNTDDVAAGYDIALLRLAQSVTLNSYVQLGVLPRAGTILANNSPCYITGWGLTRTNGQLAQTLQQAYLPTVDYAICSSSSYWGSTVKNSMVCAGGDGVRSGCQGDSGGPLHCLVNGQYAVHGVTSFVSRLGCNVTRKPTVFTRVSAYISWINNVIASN
UniProt P00780, 106-379: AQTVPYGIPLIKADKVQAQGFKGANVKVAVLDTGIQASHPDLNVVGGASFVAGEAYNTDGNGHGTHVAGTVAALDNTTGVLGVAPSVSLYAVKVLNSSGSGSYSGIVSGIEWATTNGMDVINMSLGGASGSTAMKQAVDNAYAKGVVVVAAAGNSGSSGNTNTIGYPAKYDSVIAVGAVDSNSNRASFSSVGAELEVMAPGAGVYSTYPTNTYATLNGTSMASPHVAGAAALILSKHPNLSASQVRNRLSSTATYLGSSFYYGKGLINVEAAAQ
UniProt P00760: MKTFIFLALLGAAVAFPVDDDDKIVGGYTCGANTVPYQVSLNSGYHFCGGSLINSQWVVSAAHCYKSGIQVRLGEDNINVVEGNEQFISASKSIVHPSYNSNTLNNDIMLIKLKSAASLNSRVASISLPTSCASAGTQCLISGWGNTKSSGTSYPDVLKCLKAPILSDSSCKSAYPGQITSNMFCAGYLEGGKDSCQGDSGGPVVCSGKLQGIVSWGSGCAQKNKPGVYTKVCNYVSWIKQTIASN

Legend:
Experiment in all cases: ELISA
Conditions in all cases: protein immobilized; ELISA: PBS pH 7.4, 5 mM MgCl2, 10 mM KCl, 0.01% Tween 20, 20 min (temperature not stated); commercial protein; label: biotin (ELISA); single-stranded DNA
carbonic anhydrase = tested on: carbonic anhydrase
conalbumin = conalbumin (UniProt P02789)
ferritin = tested on: ferritin
ovalbumin = biological target: T1, ovalbumin (UniProt P01012)
T1 sequence (looked up, limits assumed): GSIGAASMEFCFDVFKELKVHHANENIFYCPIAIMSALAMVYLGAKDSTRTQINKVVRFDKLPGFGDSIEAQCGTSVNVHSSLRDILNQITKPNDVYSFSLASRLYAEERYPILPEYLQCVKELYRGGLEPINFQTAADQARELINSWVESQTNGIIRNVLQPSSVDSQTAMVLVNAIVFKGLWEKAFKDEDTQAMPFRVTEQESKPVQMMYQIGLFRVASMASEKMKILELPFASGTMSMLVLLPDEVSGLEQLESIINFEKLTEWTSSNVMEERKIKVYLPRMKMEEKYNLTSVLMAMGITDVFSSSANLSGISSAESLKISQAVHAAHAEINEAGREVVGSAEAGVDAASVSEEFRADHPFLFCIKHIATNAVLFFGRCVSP

[1] = biological target: pancreatic elastase (Sus scrofa) (UniProt P00772)
ribonuclease A = biological target: T2, ribonuclease A (UniProt P61823)
T2 sequence (looked up, limits assumed): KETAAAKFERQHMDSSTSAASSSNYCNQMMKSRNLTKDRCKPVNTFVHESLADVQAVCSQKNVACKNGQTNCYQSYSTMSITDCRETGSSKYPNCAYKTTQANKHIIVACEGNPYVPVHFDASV

subtilisin (Carlsberg) = subtilisin (Carlsberg) (UniProt P00780)
trypsin (Bos taurus) = trypsin (Bos taurus) (UniProt P00760)

Measured: binding result

CATGCTTCCCCAGGGAGATGAGGACGGGCGTGGGGATGGGTATGGTGCAACTCCCGAGGAACATGCGTCGCAAAC [aptamer E6]
no binding: carbonic anhydrase | conalbumin | ferritin | ovalbumin | [1] | ribonuclease A | subtilisin (Carlsberg) | trypsin (Bos taurus)
